Measurements as given in PMC10123117.
Results are given in words; binding and its absence hold for the method and conditions named. In cells and extracts the contact can be indirect. Here binding means that the protein was enriched with, or labelled near, the bait; the list need not be complete. Values belong to the binder of their own block, whether it stands above or below them.

By UniProt entry, the sequences of proteins in these tests, tags left out.
UniProt Q6A4J8: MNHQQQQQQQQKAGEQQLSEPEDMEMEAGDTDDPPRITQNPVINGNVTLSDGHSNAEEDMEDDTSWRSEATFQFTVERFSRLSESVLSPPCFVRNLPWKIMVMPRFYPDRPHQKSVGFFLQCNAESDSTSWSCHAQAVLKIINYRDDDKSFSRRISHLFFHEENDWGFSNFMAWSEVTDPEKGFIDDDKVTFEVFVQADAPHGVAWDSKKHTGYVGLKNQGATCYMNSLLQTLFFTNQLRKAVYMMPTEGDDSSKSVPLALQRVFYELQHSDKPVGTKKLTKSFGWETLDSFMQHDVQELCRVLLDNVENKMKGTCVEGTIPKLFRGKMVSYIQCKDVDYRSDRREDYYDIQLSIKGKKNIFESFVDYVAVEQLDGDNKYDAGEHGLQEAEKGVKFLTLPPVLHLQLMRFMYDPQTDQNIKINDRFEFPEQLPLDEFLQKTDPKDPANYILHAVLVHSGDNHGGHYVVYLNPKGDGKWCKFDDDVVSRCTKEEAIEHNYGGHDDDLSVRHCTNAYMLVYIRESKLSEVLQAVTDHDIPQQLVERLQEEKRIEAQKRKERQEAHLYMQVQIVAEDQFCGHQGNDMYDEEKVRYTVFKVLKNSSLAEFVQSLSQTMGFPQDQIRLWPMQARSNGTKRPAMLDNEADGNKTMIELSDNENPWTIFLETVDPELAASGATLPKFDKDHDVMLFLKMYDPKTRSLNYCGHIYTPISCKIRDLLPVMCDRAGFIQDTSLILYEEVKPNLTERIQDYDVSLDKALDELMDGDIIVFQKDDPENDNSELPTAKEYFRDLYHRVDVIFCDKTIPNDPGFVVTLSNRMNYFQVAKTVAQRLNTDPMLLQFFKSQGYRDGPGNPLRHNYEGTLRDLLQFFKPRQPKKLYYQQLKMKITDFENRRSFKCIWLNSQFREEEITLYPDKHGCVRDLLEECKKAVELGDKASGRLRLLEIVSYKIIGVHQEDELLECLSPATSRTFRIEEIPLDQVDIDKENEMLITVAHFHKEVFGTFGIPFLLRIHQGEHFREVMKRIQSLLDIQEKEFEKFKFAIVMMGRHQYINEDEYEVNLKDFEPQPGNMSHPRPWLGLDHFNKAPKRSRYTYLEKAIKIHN

Target: USP7 (mouse (endogenous in E14TG2a ES cells)) (UniProt Q6A4J8)
Assay: affinity purification with mass spectrometry; anti-USP7 immunoprecipitation of endogenous USP7 from WT mESC lysate, Usp7-KO ES cells as control, three independent experiments; nanoLC-MS/MS, spectral counts; enriched: fold change >4 and adjusted P <0.05

binding: binds
B1: RNF169 (protein, UniProt E9Q7F2 1-694)
chain: MAAAGPSTRASSAAAAAALSRRGRRGRCDEMAAAKAGAPGPASSPALLVLRSAPRPEESGCTGCLETPGEVAALPCSHSRCRGCASRAAGPGCRRCRPRGSGWARRRARDDGQAAAELMGERARRGQPEPCRPRRDGGAAASGPRPEPEPLAEPEFIFRTPIKLSKPGELSEEYGCLRKLRGEKLQEEKDCDDQIHKLLQEDSEMGKRKADEQKKRDEAVVLKTSLEQCPARLSDSENEEPSRGQMMQTHRSAFVSKNSSCSLAFLAGKLNTKVQRSQSCSDTVQDRVRSRLRTAPPNRAKITTITPGSTPIIGVLLSTQNNRCLSAPDLTIEKRLPFGSLSSLASLHKPERSISPESNDSISEELNHFKPIVCSPCTPPKRLPDGRVLSPLIIKSTPRNLTRSLQKQTSYEASPRILKKWEQIFQERQIKKTLSKATLTSLAPEAGEEFPGSDTIHSSKERPSLAFNTRLSRVQVLSECAGPTSTALECFPSVNQTKVEQDCVRKRSREFSLETCHSSEHGGASSGPSLEREQCEESGSTVDATLVKTCISTVMKTAAVNSLLPKNDVLGGVLKTKQQLKTLNHFDLGNGILVNSLGEEPIPSLRRGRKRRCKTKHLEQNGVKKLRPPSSDMDLAPKDPGLLEVGRKLQQEEEDQQLALQSHRMFDSERRTMSRRKGSVDQYLLRSSSLAGAK

binding: binds
B2: MARCH7 (protein, UniProt Q9WV66 1-693)
chain: MESKPSRIPRRISVQPSGSLSTRMVSGNRGTSLNDSYHSRDSSFRLDSEYQSASASACASPCQPAWYSESEIPQGARARAQTQQRDHDSKRPKLSCTNCASTSAGRNGGSGLNTVSDSSWRHSQVPRSSSMVLGSFGTDLMRERRDLDRRRESSISNLMDYNHRSGDFTTSSYVQERVPSSYSQGARPKENAVSTLQLNSSSTNHQLPSDHQTVPSSRDSSRSSFRSHFSPRQSESFRNSSHPAFSYFSSRNETPTISNSERGSSQRPYRESSDNEGRRTTRRLLSRIASSMSSTFFSRRSSQDSLNTRSLSSENYISPRTLTSQSRNNGTSSSSDVSEGRAAEASQGFRFLRRRWGLSSLSQNHSSEPEAENFNQESEGRNSGPWLSSSLRNRCTPLFSRRRREGRDESSRMSTSDVPPRSHIFRRDSNEVVHLEAQGDSLGAAANRPQASGASSSAAAGGSTPELPQGGRNPGLTGILPGSLFRFAVPPALGSNLADNVMITVDIIPSGWNSTDGKNDKAKSAPSRDPEKLQKIKESLLLEDSDDEEEGDLCRICQMAAASSSNLLIEPCKCTGSLQYVHQECMKKWLQAKINSGSSLEAVTTCELCKEKLQLNLEDFDIHELHRAHANEQAEYEFISSGLYLVVLLHLCEQSFSDMMGNTIEPSTRVRFINLARTLQAHMEDLETSEDEF
